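Growth of Mycobacterium tuberculosis over 4 days (cholesterol / DPPC medium with tyloxapol); the read-out is not stated. Tested at 50 µM. Higher reads as more growth inhibition (inferred: compounds with an IC50 in retests scored well above the rest). About 69,000 compounds were tested under these conditions; 0.54% (about 370) showed 50% or more at least once.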

Results are given as percent effect. How 0% and 100% were set is not recorded. Most values in the screen are low, and negative values occur. This is an unselected part of the compounds tested. Two or more numbers in one place are separate tests of the same structure; such repeats can differ widely.

compound,percent effect
COC(=O)c1ccc(OCC(=O)N(C)Cc2ccsc2)c(OC)c1,-0.4267 & -7.421
CCCS(=O)(=O)N1CCc2nc(N3CCOCC3)nc(N(C)C)c2C1,-12.8
COc1ccc(-c2noc(CN3CCOCC3C)n2)cc1OC (centres undefined),-6.235
O=C(C1CCC2(CCN(CC3CC3)CC2)O1)N1CCCC1.O=C(O)C(F)(F)F (centres undefined),10.71
CN(Cc1ccco1)C(=O)Nc1cccnc1N1CCCC1,5.626
O=C(O)C(F)(F)F.O=C1CCCN1Cc1nnn2c1CN(c1cccnc1)CCC2,6.914
Cc1nn(C)c(C)c1C(=O)NN1CCOCC1,3.601
O=C(O)C(F)(F)F.[H][C@@]12COC[C@]1(CNC(=O)c1ccco1)CN(Cc1cc(C)on1)C2,-11.35 & -8.377
COc1cccc(-c2nccc(C3CCCN3C)n2)c1 (centres undefined),-6.372
CCOC(=O)CCCNc1nc(C(C)(C)C)nc2c1cnn2C,-24.46
Cc1ccc(C(=O)N2CCC3(CC2)CC(N2CCCC2)C3)cc1.O=C(O)C(F)(F)F,6.242
Cc1ccccc1CN1CCCN(S(=O)(=O)N(C)C2CCCCC2)CC1,8.654
CCC(CO)N(Cc1ccccn1)C(=O)c1ccc2c(c1)CCO2 (centres undefined),-10.96
CCC1(CC)CC(=O)N(CC(O)c2ccc(F)cc2)C1=O (centres undefined),0.822
Nc1nccc(C2CCN(CC3CC3)C2)n1 (centres undefined),-10.8
O=C(O)C(F)(F)F.O=C(c1cccnc1)N1CCC2(CCN(C(=O)c3ccco3)CC2)C1,-2.733
Cc1ccnn1CCC(=O)N1CCCC1c1cc2cccnc2[nH]1.Cl (centres undefined),15.41
CS(=O)(=O)CCCC(=O)Nc1cc(-c2cccc(F)c2F)n[nH]1,-12.45 & -5.917
COCCN(C)CCN1CC2(CCN(C(=O)C3CCOC3)CC2)OC1=O (centres undefined),-17.31
CN(C)[C@@H]1CCN(c2ncccn2)[C@H]1Cc1cccnc1.O=C(O)C(F)(F)F.O=C(O)C(F)(F)F,-16.57
Cn1cccc1-c1cc(C(=O)N2CCCC2c2ccc(C(N)=O)s2)[nH]n1 (centres undefined),4.524
COCCc1noc(-c2ccc(=O)[nH]c2)n1,20.67
Cc1cccc(NC(=O)c2sc(C)nc2C)n1,11.43
COc1ccc(S(=O)(=O)N2CCC(O)(CN(C)C)C2)cc1 (centres undefined),5.571
CSC(C)C(=O)N1CCCN(c2ncccc2C#N)CC1 (centres undefined),-13.84
Cc1noc(CN2CCOC(CN(C)C)C2)n1 (centres undefined),-37.8
COc1ccc(CNc2ncc(-c3cc(C)no3)c(C(C)C)n2)cc1,61.07
C[C@@H](CO)NC(=O)c1ccc2nc(NS(C)(=O)=O)sc2c1,-6.692
[H][C@@]12CCN(c3nncs3)C[C@@]1([H])O[C@@H](C(=O)NCCc1ccncc1)C2,-1.471
Cn1cc(CN2CCCn3cnc(COCC4CC4)c3C2)cn1,24.22
Cc1noc(NS(=O)(=O)c2ccc(Cl)s2)c1C,1.993
CCC(C#N)NC(=O)CCCOc1cccc(C(C)=O)c1 (centres undefined),-1.962
O=C1CSC(c2ccsc2)c2c(n(C3CCOCC3)[nH]c2=O)N1 (centres undefined),0.8597
CC(=O)N1C[C@H](c2cc(O)nc(C)n2)[C@@H](c2ccccc2F)C1,-4.156 & -3.484
CNC(=O)CCc1cc(C2CCCN2S(C)(=O)=O)nc(C)n1 (centres undefined),-0.9566 & -12.98
CCN(CC)CCn1cnc(-c2ccccc2)c1-c1cnc(C)s1,7.509
CC(=O)N1CCC(c2nccnc2-c2ccc(C(=O)O)cc2)CC1,-29.15
CC(C)Nc1nc(O)cc(C2CC(=O)N(Cc3ccccc3)C2)n1 (centres undefined),1.003
COc1ccccc1C(=O)N1CCN(C(=O)Cc2ccccn2)CC1,-32.72
CCn1nc(C)c2nc(C(C)C)nc(NCC(C)C)c21,26.28
CCn1c(CN2CCC(O)(C(=O)OC)CC2)nc2c(F)cccc21,10.94
CC(C)NC(=O)c1ccc2c(c1)C1(CCN(C)CC1)C(=O)N2.O=C(O)C(F)(F)F,-0.2575
COc1ccc(CN(C)c2ccc(-c3nccn3C)nn2)cc1OC,2.583
CCCNC(=O)C(C)Nc1ccc(OCC)cc1 (centres undefined),-1.669
CS(=O)(=O)CCCN(CCCO)C1CCc2ccccc21 (centres undefined),-8.701
CN(C)C(=O)CCS(=O)(=O)Cc1coc(-c2ccc(F)cc2)n1,2.162
O=C(CNc1cc(F)ccc1OCC1CCCO1)N1CCOCC1 (centres undefined),-11.56
O=C(c1ccncc1)N1CCCC(c2ncncc2-c2ccncc2)C1 (centres undefined),-16.95
CC(C)C[C@H](N)COc1cccc(F)c1Oc1cccc(Cl)c1,104.3
FC(F)(F)c1cccc(CNc2nccc(C(F)(F)F)n2)c1,-17.99
Cn1cc2c(n1)C(COCC1CC1)CN(Cc1ccsc1)C2 (centres undefined),-19.7
CCOC(=O)CNC(=O)c1scnc1C,-7.423
Cc1ccc(OCCC(=O)NC2CCc3nccn3C2)cc1 (centres undefined),12.24
CCc1cc(C(=O)N2Cc3ccccc3OC3(CCOCC3)C2)on1,-0.09769
O=C(c1ccncc1)N1CCC(c2nc(O)cc(-c3cccnc3)n2)C1 (centres undefined),-10.62
CC(=O)N1CCC[C@@H](NCc2c[nH]c3ccccc23)[C@@H]1c1ccc(C)s1.Cl,11.98
Cc1cc(C)c(CNC(=O)NCc2ccc(F)c(C)c2)c(=O)[nH]1,8.734
[H][C@@]12CCN(Cc3cc(C)on3)C[C@@]1([H])O[C@@H](c1nnc(C)[nH]1)C2,20.25
O=C(O)C(F)(F)F.O=C1CC[C@]2(CC[C@@H](NCc3ccc4c(c3)OCO4)CC2)N1,-8.37
Cc1ccc(C)c(C(NC(=O)C2CC2)c2cccnc2)c1 (centres undefined),10.25
COc1ccc(CNc2c(C)nn(C(C)C)c2C)cc1,-10.87
COc1cc(CCC(=O)NC2CC2)ccc1OCC(F)(F)F,-17.52
Cc1nn(C)c(N(C)C)c1CNCCS(C)(=O)=O,-10.02
CCc1nc2n(n1)CC(NCC(=O)Nc1ccc(Cl)cn1)CC2 (centres undefined),9.829
OC[C@H]1CN(Cc2c(Cl)cncc2Cl)C[C@H]1CN1CCOCC1,7.015 & -0.1499
O=C1CCNc2ccccc2CN1Cc1ccco1,-21.54
COCc1cncc2c1CCN(Cc1ccccn1)C2.O=C(O)C(F)(F)F.O=C(O)C(F)(F)F.O=C(O)C(F)(F)F,-18.5 & -15.92
Cc1ccccc1CNc1nc(O)cc(C2CC(=O)N(C)C2)n1 (centres undefined),-14.57
CC(=O)N1CCCC(c2cnc(-c3c(C)nn(C)c3C)cn2)C1 (centres undefined),-10.99
Cc1ccc2oc(C(=O)N3CCc4nnc(N(C)C)cc4C3)cc2n1,9.423
CC1(C)CC(N(Cc2ccncc2)Cc2cccnc2)CC(C)(C)N1.O=C(O)CC(O)(CC(=O)O)C(=O)O,-30.34

Some entries from above, unchanged:

| compound | percent effect |
|---|---|
| `Cn1cc2c(n1)C(COCC1CC1)CN(Cc1ccsc1)C2` (centres undefined) | -19.7 |
| `FC(F)(F)c1cccc(CNc2nccc(C(F)(F)F)n2)c1` | -17.99 |
| `CC(C)C[C@H](N)COc1cccc(F)c1Oc1cccc(Cl)c1` | 104.3 |
| `O=C(O)C(F)(F)F.[H][C@@]12COC[C@]1(CNC(=O)c1ccco1)CN(Cc1cc(C)on1)C2` | -11.35 & -8.377 |
| `CC(=O)N1CCCC(c2cnc(-c3c(C)nn(C)c3C)cn2)C1` (centres undefined) | -10.99 |
| `CC(=O)N1C[C@H](c2cc(O)nc(C)n2)[C@@H](c2ccccc2F)C1` | -4.156 & -3.484 |
| `Cc1ccc2oc(C(=O)N3CCc4nnc(N(C)C)cc4C3)cc2n1` | 9.423 |
| `CCCNC(=O)C(C)Nc1ccc(OCC)cc1` (centres undefined) | -1.669 |

The values are deposited in ChEMBL (CHEMBL3988442, “University of Dundee, Small-Polar-MMV Screening Library” (2021)).